Protein sequences, listed by entry. Tags and fused reporters are not part of them. Lines headed by an entry give the natural chain unless they say otherwise; changes in a name come on top.
UniProt P11172: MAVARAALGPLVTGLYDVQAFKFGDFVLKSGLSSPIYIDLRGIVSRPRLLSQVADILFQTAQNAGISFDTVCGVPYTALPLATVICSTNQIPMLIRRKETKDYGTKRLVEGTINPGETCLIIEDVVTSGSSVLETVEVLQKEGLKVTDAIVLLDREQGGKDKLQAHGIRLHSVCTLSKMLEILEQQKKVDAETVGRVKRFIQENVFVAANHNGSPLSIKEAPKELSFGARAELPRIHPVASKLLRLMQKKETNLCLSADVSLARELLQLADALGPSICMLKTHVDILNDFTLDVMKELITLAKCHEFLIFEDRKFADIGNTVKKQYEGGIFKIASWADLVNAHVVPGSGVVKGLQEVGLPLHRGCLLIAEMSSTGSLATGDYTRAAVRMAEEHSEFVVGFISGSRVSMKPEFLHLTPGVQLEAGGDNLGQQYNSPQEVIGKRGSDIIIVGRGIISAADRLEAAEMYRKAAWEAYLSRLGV
UniProt P55072, whole entry, looked up: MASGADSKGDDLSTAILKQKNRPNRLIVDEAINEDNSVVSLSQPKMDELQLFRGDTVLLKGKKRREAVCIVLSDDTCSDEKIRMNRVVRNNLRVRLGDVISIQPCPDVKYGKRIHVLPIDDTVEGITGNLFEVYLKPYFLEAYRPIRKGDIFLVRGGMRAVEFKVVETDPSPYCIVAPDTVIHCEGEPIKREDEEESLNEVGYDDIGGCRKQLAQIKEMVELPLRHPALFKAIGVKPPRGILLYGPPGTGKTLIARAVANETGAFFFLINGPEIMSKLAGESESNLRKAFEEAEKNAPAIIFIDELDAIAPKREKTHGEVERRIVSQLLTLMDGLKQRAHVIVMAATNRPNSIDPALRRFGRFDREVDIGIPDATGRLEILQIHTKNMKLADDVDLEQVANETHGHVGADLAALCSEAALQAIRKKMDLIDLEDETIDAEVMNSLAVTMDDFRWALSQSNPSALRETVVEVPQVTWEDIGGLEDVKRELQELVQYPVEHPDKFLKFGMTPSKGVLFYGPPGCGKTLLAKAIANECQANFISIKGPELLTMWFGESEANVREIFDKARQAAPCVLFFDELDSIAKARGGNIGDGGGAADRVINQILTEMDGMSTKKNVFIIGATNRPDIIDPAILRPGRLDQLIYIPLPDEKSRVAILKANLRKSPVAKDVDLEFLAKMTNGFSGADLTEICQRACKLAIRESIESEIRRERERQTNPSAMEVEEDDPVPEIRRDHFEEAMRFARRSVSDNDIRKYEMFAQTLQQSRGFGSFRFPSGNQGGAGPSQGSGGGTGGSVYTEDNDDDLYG
UniProt P11441: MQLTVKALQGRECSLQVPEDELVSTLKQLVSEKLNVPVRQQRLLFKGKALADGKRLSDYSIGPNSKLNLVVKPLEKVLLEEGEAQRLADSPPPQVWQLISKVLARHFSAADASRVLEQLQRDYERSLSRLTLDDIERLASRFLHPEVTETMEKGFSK
UniProt O75379: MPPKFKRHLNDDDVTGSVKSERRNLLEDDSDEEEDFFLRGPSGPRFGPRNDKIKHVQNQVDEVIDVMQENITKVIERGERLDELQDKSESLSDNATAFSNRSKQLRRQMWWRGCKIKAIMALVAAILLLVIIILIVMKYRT
UniProt Q9NVA1: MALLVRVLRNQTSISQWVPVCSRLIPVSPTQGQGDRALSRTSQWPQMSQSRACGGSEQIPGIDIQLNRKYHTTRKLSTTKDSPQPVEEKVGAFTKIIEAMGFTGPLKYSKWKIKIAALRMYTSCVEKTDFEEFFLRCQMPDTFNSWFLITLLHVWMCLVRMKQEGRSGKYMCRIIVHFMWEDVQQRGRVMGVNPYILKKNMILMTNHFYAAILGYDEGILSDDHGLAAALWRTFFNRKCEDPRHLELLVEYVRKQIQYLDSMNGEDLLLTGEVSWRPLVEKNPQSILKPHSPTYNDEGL
UniProt P14927: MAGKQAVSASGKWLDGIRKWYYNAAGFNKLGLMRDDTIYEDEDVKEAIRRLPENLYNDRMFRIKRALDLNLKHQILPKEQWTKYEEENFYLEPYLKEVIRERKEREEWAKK
UniProt Q9NUQ7: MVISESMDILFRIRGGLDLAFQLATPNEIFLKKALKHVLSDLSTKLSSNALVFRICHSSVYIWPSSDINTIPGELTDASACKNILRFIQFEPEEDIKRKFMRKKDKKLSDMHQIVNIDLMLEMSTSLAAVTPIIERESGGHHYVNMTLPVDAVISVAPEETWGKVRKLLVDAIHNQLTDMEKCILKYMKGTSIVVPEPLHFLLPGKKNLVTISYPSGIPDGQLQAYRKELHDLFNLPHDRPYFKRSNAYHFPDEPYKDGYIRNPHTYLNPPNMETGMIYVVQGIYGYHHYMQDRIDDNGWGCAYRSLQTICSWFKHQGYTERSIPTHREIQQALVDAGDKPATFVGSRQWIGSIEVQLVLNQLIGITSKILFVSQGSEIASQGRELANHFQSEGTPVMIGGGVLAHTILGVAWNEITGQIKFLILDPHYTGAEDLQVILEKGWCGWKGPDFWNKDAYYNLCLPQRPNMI
UniProt O14949: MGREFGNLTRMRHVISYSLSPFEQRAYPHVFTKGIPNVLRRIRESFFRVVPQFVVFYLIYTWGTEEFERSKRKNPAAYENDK
UniProt Q9Y4E8: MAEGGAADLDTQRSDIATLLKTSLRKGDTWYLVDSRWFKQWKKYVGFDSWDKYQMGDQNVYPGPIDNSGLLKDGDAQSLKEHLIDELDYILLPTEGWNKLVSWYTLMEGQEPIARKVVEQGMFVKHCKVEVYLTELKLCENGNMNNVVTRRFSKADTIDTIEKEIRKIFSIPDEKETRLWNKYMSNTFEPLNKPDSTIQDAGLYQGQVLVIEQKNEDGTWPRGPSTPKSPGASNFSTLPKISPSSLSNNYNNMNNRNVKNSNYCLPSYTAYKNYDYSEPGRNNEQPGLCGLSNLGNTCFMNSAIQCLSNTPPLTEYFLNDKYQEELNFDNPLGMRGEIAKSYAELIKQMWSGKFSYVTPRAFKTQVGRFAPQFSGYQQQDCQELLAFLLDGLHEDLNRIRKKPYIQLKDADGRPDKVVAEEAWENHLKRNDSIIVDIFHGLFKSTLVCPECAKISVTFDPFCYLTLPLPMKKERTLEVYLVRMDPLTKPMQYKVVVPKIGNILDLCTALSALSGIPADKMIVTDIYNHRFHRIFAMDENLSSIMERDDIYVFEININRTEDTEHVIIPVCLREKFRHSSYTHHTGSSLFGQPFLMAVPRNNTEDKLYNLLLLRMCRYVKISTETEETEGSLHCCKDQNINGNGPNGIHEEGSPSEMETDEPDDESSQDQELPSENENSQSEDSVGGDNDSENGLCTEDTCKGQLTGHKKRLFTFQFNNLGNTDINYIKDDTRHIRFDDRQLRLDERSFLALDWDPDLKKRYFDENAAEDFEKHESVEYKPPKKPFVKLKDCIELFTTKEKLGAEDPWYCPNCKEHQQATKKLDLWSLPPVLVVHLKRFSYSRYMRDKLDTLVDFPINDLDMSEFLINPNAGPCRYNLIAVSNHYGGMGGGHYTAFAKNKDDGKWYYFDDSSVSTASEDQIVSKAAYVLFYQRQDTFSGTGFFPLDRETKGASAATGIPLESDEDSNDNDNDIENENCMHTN
UniProt P22695: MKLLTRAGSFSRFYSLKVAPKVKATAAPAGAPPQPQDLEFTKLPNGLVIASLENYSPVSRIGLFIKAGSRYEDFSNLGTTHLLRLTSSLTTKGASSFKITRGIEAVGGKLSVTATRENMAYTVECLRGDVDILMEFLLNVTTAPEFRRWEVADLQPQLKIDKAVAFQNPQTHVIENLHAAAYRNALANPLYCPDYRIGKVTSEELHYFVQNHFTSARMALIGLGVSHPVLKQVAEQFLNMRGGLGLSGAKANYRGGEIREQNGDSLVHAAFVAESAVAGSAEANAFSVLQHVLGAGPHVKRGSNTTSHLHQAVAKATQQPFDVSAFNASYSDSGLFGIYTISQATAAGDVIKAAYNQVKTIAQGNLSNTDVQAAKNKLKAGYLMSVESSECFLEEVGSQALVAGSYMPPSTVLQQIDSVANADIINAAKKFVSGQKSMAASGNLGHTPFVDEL
UniProt Q93009, whole entry, looked up: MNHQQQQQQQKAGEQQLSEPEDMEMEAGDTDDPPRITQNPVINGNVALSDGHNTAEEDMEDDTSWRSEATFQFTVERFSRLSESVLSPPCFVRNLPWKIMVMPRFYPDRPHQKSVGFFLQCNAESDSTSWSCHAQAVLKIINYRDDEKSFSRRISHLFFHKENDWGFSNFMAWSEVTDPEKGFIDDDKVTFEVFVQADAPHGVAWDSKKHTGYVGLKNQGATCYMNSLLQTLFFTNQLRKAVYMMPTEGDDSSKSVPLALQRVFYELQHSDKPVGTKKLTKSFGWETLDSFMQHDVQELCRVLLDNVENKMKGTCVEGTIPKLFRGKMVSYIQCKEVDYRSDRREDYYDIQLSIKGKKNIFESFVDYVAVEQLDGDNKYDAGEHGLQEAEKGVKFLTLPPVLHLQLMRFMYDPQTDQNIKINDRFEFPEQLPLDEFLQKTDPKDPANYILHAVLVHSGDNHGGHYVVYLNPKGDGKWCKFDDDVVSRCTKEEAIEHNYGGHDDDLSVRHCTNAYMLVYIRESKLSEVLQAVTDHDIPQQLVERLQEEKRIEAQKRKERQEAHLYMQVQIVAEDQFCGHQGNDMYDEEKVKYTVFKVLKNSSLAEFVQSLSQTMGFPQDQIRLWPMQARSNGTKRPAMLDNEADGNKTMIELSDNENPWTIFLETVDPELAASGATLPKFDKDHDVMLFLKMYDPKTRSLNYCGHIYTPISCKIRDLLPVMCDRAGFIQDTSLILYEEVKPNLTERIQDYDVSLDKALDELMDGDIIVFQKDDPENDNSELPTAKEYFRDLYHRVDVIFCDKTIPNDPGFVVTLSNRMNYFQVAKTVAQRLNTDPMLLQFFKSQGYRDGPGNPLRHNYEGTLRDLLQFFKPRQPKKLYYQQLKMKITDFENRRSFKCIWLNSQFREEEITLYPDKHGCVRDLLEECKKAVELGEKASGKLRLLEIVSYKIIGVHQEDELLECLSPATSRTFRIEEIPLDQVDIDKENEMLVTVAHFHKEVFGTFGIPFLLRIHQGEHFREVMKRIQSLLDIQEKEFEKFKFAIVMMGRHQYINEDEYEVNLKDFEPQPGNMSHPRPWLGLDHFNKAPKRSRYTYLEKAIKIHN
UniProt Q92900: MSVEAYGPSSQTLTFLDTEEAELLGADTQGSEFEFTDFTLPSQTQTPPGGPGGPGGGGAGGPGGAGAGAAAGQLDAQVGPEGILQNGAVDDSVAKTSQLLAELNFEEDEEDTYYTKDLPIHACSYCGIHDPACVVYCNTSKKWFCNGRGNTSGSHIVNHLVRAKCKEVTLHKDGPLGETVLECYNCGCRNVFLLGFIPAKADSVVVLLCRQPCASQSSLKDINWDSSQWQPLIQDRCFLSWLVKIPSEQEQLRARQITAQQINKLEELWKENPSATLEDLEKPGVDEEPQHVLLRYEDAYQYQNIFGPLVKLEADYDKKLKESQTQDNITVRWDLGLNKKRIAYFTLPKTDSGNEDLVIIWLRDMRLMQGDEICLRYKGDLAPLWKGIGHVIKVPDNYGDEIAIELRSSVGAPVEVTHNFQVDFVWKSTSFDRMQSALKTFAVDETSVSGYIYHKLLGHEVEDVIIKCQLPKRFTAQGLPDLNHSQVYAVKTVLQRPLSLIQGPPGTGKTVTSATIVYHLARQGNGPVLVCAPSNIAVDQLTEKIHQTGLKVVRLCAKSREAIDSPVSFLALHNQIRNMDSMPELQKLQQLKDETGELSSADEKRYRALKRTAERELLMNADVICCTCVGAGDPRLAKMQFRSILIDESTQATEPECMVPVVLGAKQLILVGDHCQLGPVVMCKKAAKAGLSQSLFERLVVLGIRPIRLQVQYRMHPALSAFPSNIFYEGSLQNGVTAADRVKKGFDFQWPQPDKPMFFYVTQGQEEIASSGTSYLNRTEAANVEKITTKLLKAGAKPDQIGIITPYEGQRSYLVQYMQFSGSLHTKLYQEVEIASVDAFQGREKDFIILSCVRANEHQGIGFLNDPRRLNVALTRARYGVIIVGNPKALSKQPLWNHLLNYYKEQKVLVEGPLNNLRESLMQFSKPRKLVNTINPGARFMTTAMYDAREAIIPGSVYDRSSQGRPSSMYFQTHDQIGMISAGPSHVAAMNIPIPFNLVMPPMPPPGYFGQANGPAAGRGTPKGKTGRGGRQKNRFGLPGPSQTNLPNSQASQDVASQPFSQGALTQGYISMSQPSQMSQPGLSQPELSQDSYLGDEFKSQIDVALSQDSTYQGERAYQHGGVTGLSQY
UniProt Q8WVY7: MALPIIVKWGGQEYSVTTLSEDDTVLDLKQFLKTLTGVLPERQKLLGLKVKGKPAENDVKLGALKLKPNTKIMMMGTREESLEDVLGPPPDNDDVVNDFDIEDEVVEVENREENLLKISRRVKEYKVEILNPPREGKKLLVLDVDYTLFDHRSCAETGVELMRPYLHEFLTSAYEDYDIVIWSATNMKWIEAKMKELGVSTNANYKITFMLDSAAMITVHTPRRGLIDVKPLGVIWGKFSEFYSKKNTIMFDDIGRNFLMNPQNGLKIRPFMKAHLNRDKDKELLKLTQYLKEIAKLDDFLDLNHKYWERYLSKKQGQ

This is one part of the list.
Each target was assayed with CN1CCN(c2nc(C3=C(c4c[nH]c5ccccc45)C(=O)NC3=O)c3ccccc3n2)CC1 [sotrastaurin] (assay: log2 fold change, soluble protein after heating vs DMSO (PISA); higher = thermal stabilisation; K562 cells, 10 uM, 30 min; active = over 0.2 and 3.5 SD of the protein, either way, in both replicates (recomputed)).
In short: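 Values are thermal stability changes relative to control samples and are taken from duplicates. They are stated as log2 fold changes. Before quantification by TMTpro 16plex LC-MS/MS with equalised channel sums, K562 cells at 2×10^6 cells/mL were treated with 10 μM compound for 30 min, heated in aliquots for 3 min across 48°C-58°C, pooled, extracted in PBS with 0.5% NP-40 at 4°C, and centrifuged at 21,000xg for 90 min to give the soluble supernatant.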
UMPS (UniProt P11172) was tested, and the log2 fold change was inactive: 0.007. USP9X (UniProt Q93008) was tested, and the log2 fold change was inactive: -0.073. In the case of UBXN7 (UniProt O94888), the log2 fold change is reported as inactive: -0.033. For USP6NL isoform 2 (UniProt Q92738), the log2 fold change was inactive: 0.029. UBQLN1 (UniProt Q9UMX0) was tested, and the log2 fold change was inactive: 0.038. For USP22 (UniProt Q9UPT9), the log2 fold change was inactive: 0.039. UGT8 (UniProt Q16880) was tested, and the log2 fold change was inactive: 0.103. For VAMP2 (UniProt P63027), the log2 fold change was inactive: 0.001. With UXS1 isoform 2 (UniProt Q8NBZ7) the log2 fold change was inactive: 0.064. With VCP (UniProt P55072) the log2 fold change was inactive: 0.033. In the case of USP19 isoform 6 (UniProt O94966), the log2 fold change is reported as inactive: -0.021. For UTP15 (UniProt Q8TED0), the log2 fold change was inactive: 0.008. In the case of UBL4A (UniProt P11441), the log2 fold change is reported as inactive: -0.033. UBE3C (UniProt Q15386) was tested, and the log2 fold change was inactive: -0.033. For VAMP4 (UniProt O75379), the log2 fold change was inactive: 0.049. UQCC1 (UniProt Q9NVA1) was tested, and the log2 fold change was inactive: 0.019. With UCKL1 (UniProt Q9NWZ5) the log2 fold change was inactive: 0. With UQCRB (UniProt P14927) the log2 fold change was inactive: 0.05. With VARS (UniProt P26640) the log2 fold change was inactive: -0.032. With UBL5 (UniProt Q9BZL1) the log2 fold change was inactive: -0.034. In the case of USP20 (UniProt Q9Y2K6), the log2 fold change is reported as inactive: 0.088. With USP30 (UniProt Q70CQ3) the log2 fold change was inactive: -0.317. For UPRT (UniProt Q96BW1), the log2 fold change was inactive: 0.021. For UPF3B (UniProt Q9BZI7), the log2 fold change was inactive: 0.002. For VAMP7 (UniProt P51809), the log2 fold change was inactive: 0.012. In the case of UVRAG (UniProt Q9P2Y5), the log2 fold change is reported as inactive: -0.017. With UFSP2 (UniProt Q9NUQ7) the log2 fold change was inactive: -0.036. With UQCRQ (UniProt O14949) the log2 fold change was inactive: 0.044. USP15 (UniProt Q9Y4E8) was tested, and the log2 fold change was inactive: -0.093. With UBQLN2 (UniProt Q9UHD9) the log2 fold change was inactive: 0.01. In the case of UGDH (UniProt O60701), the log2 fold change is reported as active: -0.284. For UQCRC2 (UniProt P22695), the log2 fold change was inactive: 0.032. UNC93B1 (UniProt Q9H1C4) was tested, and the log2 fold change was inactive: 0.214. For USP7 (UniProt Q93009), the log2 fold change was inactive: -0.083. With UCHL3 (UniProt P15374) the log2 fold change was inactive: -0.004. VBP1 (UniProt P61758) was tested, and the log2 fold change was inactive: 0.041. With UPF1 (UniProt Q92900) the log2 fold change was inactive: 0.006. UBLCP1 (UniProt Q8WVY7) was tested, and the log2 fold change was inactive: -0.032. For UXT isoform 2 (UniProt Q9UBK9), the log2 fold change was inactive: -0.056.

Reference: the supplement of paper PMC10849652
